# Experimental data as given in article PMC11161108.
# Sequences of proteins named here, by UniProt entry; tags and fusion partners are left off. Residues count along the entry.
# UniProt P01591, residues 23-159: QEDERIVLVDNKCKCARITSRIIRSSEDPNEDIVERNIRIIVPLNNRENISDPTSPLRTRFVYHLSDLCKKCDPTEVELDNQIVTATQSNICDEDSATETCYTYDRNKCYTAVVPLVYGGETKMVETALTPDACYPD
# No constants are given. Whether binding was seen depends on the method and setting. Some results given as binding are weak or reduced against the parent protein; the word gives no strength.
# Biological target: human joining chain (J-chain) (human) (UniProt P01591)
# Assay: non-reducing SDS-PAGE and Western blot (disulfide-linked assembly); day-7 culture media of HEK293 cells transfected with one, two or three subunit constructs; LDS sample buffer with 2 mM N-ethylmaleimide, no reducing agent, 75°C 5 min; Coomassie or blots with anti-IgM (H+L), anti-λLC or anti-JC; only covalent (disulfide) links survive the SDS
substance,measurement,value
human joining chain (J-chain) (from UniProt P01591 23-159),binding,binds
